Some of the results follow. Most entries show no effect beyond the scatter of the controls.
Compound: CN[C@@H]1C[C@H]2O[C@@](C)([C@@H]1OC)n1c3ccccc3c3c4c(c5c6ccccc6n2c5c31)C(=O)NC4 [staurosporine]
Assay: log2 fold change of tryptic peptide abundance, ligand vs vehicle (limited proteolysis) (log2 ratio); higher = more trypsin-susceptible (destabilized)
Conditions: ligand concentration: 20 uM; sample: mouse liver crude lysate; replicate design: treated separately

Amino acid sequences for entries named in this document (tags omitted). A change or cut given only in a name is not applied to a line headed by its entry.
UniProt P57080: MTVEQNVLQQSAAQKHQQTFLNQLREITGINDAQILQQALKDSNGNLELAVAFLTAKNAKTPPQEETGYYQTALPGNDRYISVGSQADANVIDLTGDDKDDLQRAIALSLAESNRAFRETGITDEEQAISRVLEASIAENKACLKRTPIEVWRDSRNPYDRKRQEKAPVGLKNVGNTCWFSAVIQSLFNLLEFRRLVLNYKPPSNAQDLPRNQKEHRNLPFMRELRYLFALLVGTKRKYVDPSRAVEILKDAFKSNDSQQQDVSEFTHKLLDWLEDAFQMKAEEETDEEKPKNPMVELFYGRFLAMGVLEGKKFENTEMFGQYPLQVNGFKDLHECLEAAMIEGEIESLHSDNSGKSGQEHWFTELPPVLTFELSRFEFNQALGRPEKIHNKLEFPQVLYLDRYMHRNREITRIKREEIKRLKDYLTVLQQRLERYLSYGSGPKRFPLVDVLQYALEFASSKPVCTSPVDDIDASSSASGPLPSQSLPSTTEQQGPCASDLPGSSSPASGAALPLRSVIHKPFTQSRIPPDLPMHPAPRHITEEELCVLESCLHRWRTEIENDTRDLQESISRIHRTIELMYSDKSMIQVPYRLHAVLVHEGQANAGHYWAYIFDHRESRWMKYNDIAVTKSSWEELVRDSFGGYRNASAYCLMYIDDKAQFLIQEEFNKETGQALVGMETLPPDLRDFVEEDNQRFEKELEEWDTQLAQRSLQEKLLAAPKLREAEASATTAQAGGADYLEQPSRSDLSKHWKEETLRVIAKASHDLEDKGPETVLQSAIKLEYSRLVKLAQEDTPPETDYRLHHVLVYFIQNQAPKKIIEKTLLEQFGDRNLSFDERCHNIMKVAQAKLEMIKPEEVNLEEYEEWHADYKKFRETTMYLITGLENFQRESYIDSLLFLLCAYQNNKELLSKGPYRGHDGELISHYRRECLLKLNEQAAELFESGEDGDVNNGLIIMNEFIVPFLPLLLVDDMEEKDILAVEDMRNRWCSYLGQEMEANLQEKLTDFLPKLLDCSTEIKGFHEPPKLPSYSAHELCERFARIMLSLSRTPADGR
UniProt P57725: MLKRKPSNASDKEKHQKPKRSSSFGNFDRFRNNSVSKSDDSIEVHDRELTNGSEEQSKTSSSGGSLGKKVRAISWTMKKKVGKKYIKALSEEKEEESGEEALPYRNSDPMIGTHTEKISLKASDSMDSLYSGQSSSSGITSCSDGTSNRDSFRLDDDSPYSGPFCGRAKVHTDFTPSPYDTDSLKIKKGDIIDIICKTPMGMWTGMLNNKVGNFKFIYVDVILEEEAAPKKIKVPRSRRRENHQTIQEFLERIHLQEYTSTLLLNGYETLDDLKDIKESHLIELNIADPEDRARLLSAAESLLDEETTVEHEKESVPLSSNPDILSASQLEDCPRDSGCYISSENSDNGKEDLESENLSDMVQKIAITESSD
UniProt P58137: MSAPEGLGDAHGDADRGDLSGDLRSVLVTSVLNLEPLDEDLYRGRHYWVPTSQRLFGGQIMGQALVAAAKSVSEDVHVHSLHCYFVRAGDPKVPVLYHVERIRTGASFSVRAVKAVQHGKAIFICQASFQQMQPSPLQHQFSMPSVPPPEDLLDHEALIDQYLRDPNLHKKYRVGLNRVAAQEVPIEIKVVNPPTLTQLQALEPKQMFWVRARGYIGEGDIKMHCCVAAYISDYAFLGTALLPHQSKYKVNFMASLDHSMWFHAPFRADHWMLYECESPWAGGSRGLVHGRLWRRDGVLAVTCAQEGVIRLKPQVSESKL
UniProt P56391: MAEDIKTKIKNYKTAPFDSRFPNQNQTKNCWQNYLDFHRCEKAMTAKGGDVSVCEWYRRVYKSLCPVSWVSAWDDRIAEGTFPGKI
UniProt P55104: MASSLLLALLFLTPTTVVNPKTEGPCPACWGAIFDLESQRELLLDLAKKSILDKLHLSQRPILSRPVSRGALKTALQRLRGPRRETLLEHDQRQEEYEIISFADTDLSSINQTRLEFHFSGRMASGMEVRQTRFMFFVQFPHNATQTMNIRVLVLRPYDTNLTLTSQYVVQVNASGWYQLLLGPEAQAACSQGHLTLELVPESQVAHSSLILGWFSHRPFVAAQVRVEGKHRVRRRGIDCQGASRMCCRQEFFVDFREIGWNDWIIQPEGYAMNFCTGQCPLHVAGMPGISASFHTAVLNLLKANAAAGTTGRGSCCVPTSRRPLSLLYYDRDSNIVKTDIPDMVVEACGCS
UniProt P57724: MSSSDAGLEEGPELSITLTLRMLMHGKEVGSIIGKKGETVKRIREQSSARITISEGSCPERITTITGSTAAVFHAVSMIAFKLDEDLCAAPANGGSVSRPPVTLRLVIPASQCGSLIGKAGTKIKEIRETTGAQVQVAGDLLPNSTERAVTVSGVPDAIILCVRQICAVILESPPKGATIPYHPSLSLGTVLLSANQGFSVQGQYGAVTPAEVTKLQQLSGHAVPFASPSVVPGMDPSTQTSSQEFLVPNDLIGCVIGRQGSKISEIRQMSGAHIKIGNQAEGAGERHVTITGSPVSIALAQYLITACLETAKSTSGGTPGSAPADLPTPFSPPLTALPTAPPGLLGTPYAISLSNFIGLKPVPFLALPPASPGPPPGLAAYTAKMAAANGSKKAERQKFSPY
UniProt P56382: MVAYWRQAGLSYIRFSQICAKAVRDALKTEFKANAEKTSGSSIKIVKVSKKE
UniProt P62915, whole entry: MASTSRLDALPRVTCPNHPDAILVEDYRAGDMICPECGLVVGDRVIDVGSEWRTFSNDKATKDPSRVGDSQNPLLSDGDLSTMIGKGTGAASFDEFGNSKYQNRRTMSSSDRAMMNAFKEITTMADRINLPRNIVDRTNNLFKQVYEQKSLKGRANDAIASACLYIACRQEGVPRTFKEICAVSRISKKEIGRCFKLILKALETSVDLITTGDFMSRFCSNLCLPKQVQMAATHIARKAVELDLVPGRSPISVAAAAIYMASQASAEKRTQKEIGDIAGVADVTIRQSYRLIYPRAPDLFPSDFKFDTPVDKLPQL
UniProt P56812: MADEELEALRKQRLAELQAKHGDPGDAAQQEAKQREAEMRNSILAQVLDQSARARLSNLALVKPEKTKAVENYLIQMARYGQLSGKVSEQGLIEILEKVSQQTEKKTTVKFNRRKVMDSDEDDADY
UniProt P58871: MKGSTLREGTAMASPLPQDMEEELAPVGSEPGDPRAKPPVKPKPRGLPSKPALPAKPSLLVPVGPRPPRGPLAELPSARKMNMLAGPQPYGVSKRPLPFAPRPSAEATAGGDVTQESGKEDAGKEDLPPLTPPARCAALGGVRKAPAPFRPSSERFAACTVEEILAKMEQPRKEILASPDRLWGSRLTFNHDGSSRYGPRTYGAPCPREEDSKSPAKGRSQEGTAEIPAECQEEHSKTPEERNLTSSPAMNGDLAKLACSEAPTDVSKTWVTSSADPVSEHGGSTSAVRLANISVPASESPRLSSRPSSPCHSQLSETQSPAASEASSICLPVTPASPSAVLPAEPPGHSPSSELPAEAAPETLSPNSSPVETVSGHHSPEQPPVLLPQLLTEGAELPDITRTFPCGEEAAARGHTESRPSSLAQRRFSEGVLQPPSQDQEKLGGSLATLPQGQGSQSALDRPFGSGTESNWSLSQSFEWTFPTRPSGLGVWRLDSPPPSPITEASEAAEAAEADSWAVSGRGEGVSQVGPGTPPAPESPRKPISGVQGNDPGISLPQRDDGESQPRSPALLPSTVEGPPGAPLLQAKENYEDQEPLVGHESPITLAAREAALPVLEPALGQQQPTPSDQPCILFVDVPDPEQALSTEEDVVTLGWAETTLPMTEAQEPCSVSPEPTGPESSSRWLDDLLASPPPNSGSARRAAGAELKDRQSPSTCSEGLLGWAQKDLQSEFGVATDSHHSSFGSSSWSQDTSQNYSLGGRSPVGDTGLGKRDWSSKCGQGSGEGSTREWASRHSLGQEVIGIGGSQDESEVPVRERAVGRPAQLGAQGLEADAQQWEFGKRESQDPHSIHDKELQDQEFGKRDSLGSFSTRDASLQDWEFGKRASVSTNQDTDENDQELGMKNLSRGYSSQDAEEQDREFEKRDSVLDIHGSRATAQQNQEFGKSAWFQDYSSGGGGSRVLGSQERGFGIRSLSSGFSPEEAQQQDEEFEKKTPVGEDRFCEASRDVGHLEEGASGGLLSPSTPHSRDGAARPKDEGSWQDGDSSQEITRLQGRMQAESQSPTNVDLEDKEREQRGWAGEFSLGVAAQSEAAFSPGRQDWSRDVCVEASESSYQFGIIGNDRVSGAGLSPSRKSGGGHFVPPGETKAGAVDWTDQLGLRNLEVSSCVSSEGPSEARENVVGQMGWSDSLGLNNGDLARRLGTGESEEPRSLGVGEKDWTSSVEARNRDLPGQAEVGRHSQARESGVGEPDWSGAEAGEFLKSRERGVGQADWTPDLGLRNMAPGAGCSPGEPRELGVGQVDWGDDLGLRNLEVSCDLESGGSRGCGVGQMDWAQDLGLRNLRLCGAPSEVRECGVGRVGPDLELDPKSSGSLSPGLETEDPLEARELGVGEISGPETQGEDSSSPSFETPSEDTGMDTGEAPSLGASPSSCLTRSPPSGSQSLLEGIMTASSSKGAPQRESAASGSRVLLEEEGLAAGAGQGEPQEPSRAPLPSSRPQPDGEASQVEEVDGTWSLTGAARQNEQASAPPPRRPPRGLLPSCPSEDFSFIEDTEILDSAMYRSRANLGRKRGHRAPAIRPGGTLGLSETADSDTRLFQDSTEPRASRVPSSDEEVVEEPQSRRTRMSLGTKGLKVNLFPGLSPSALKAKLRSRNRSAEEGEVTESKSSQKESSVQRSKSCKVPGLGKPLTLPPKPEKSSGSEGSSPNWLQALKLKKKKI
UniProt P56393: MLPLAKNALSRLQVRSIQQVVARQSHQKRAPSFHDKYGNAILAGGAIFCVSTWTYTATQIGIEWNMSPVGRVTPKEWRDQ
UniProt P59235: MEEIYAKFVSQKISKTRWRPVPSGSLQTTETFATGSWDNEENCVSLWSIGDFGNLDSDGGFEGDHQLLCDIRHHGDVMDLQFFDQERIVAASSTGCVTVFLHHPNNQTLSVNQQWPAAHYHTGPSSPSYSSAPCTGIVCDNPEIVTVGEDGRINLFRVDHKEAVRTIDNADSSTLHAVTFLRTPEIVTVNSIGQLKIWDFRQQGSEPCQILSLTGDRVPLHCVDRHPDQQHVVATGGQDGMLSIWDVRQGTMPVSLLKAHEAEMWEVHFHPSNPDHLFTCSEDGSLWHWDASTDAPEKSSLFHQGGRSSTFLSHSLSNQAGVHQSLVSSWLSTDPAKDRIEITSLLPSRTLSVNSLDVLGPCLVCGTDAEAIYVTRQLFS
UniProt P63028: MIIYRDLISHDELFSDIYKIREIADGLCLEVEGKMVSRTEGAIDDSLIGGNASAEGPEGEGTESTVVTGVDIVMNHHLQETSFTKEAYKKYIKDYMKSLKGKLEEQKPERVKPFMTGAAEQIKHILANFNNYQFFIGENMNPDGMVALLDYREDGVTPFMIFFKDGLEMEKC
UniProt P55065, whole entry: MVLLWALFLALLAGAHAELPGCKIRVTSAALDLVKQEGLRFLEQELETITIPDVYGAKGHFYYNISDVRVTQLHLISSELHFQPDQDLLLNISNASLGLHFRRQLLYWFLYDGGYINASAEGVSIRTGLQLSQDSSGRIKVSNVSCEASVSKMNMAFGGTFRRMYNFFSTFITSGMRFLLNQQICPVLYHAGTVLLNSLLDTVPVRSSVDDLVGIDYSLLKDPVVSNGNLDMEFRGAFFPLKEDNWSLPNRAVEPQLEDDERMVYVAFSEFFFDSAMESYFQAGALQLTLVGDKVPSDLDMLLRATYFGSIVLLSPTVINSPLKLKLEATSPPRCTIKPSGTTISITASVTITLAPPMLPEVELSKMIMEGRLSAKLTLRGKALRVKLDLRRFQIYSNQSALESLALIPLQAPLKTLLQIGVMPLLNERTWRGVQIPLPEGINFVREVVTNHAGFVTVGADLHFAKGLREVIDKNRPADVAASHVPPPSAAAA
UniProt P56380: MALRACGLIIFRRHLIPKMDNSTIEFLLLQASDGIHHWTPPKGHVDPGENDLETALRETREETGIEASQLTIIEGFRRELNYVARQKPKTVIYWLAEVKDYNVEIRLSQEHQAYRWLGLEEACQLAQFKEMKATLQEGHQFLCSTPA
UniProt P58043: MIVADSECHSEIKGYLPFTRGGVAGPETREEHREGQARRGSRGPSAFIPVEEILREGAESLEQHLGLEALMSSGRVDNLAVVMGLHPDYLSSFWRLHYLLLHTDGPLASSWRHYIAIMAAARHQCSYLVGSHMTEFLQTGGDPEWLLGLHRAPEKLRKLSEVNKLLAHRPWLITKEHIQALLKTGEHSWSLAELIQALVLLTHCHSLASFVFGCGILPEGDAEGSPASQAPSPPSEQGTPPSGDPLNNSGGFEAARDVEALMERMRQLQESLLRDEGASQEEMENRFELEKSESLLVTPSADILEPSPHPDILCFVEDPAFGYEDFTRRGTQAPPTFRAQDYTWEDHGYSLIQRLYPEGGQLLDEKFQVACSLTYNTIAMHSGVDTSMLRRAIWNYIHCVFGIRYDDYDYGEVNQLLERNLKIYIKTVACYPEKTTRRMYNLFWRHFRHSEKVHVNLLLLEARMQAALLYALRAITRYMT

| Target | log2 fold change |
| --- | --- |
| UniProt P62862 (peptide sequence: RFVNVVPTFGK, peptide start residue: 115) | 0.0928 |
| UniProt P57080 (peptide sequence: HITEEELCVLESCLHR, peptide start residue: 540) | -0.355 |
| UniProt P54726 (peptide sequence: ILSDDVPIKEYHIDEK, peptide start residue: 54) | -0.51 |
| UniProt P57725 (peptide sequence: ALSEEKEEESGEEALPYR, peptide start residue: 88) | -0.104 |
| UniProt P57759 (peptide sequence: WASQYLK, peptide start residue: 200) | 0.109 |
| UniProt P58137 (peptide sequence: LKPQVSESKL, peptide start residue: 311) | -0.0616 |
| UniProt P56391 (peptide sequence: NCWQNYLDFHRCEKAMTAK, peptide start residue: 29) | -0.444 |
| UniProt P55104 (peptide sequence: GSCCVPTSR, peptide start residue: 314) | -0.749 |
| UniProt P57724 (peptide sequence: IGNQAEGAGER, peptide start residue: 277) | -0.382 |
| UniProt P56382 (peptide sequence: QAGLSYIR, peptide start residue: 7) | -0.0445 |
| UniProt P62915 (peptide sequence: APDLFPSDFK, peptide start residue: 296) | -0.205 |
| UniProt P56812 (peptide sequence: LSNLALVKPEK, peptide start residue: 56) | 0.225 |
| UniProt P58871 (peptide sequence: HSLGQEVIGIGGSQDESEVPVRER, peptide start residue: 795) | -0.26 |
| UniProt P56393 (peptide sequence: RAPSFHDK, peptide start residue: 29) | 0.364 |
| UniProt P59235 (peptide sequence: SSLFHQGGR, peptide start residue: 299) | 0.00821 |
| UniProt P63028 (peptide sequence: LEEQKPER, peptide start residue: 103) | -0.927 |
| UniProt P55065 (peptide sequence: VTSAALDLVK, peptide start residue: 26) | -0.225 |
| UniProt P62962 (peptide sequence: CYEMASHLRR, peptide start residue: 128) | -0.283 |
| UniProt P59110 (peptide sequence: MDAGEVTLVNHGSTFR, peptide start residue: 10) | -0.495 |
| UniProt P56380 (peptide sequence: LSQEHQAYR, peptide start residue: 107) | -0.496 |
| UniProt P59325 (peptide sequence: YVSKELAK, peptide start residue: 360) | -0.34 |
| UniProt P58043 (peptide sequence: LLAHRPWLITK, peptide start residue: 161) | -0.0537 |
| UniProt P61219 (peptide sequence: RITTPYMTK, peptide start residue: 51) | -0.454 |
| UniProt P62075 (peptide sequence: LDPGAIMEQVK, peptide start residue: 17) | 0.0618 |
| UniProt P54227 (peptide sequence: SHEAEVLK, peptide start residue: 63) | -0.295 |

Quoted from the listing:
log2 fold change, UniProt P55065 (peptide sequence: VTSAALDLVK, peptide start residue: 26) is entered as -0.225
log2 fold change, UniProt P62075 (peptide sequence: LDPGAIMEQVK, peptide start residue: 17) is entered as 0.0618

Source: the supplement of paper PMC12819154, “High-throughput peptide-centric local stability assay extends protein–ligand identification to membrane proteins, tissues and bacteria” (Nature Structural & Molecular Biology, 2025)
